# Library screening results

Amino acid sequences for entries named in this document (tags omitted).
UniProt E9BF75, entry or part of it: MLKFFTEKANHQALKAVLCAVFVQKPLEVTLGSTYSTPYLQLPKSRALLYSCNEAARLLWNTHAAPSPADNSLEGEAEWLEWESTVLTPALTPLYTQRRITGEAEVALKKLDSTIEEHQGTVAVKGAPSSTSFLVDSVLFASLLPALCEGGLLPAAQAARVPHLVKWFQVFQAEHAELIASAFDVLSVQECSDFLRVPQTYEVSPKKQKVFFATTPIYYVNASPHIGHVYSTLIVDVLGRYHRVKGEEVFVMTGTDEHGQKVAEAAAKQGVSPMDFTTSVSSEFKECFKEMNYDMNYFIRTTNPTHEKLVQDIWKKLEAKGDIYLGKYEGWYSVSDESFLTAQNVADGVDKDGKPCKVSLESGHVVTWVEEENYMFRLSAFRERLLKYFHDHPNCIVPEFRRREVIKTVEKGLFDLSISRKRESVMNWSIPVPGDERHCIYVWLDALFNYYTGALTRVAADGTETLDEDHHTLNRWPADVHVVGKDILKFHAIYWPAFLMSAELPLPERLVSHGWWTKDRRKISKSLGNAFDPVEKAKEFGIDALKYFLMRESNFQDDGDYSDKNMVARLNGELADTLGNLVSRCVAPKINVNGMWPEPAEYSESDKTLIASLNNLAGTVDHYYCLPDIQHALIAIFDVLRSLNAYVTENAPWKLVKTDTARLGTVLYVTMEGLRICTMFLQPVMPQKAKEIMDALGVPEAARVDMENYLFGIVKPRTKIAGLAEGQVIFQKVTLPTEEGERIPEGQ

Mtb heat-shock: 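Assay on Mycobacterium tuberculosis, filed only as a heat shock assay from Cornell; the read-out is not stated. The concentration is filed as 10 mM, unlikely as a test dose, so the dose is not known. Direction is inferred from retests: higher values go with stronger inhibition. Of about 69,000 compounds tested this way, about 930 (1.4%) reached 50% or more in at least one test.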
LdMetRS: 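Methionyl-tRNA synthetase (putative), Leishmania donovani (UniProt E9BF75). Primary screen of methionyl-tRNA synthetase; the read-out is not stated. The test concentration is not given. The values are filed as inhibition. Of about 68,000 compounds tested this way, about 24 (0.035%) reached 50% or more in at least one test.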
Mtb growth Cornell: 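Whole-cell assay for inhibitors of Mycobacterium tuberculosis growth, labelled Cornell in the record; the read-out is not stated. The concentration is filed as 10 mM, unlikely as a test dose, so the dose is not known. Higher means stronger inhibition (inferred from two other growth screens of the library). Size under these conditions: about 53,000 compounds, about 900 of them at 50% or above in at least one test.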

All values are in %. The record does not define 0% and 100%; most values in the screen are far below 50% and negative numbers occur (in some assays of this library far below -100). This is an unselected part of the compounds tested.

{"structure": "COc1cccc(CNc2cccnc2-n2cccn2)c1OC", "Mtb heat-shock": -10.27, "LdMetRS": 13.2}
{"structure": "CC(c1ccccn1)N(C)C(=O)CN1CCN(c2ccccn2)CC1", "stereo": "stereo not drawn", "Mtb heat-shock": -18.41, "LdMetRS": 1.718}
{"structure": "CNc1ncc(CN(C)C(=O)[C@@]23CNC[C@@H]2CN(C2CCCC2)C3)cn1", "LdMetRS": 10.65}
{"structure": "Cc1cc(N2CCCN(C(=O)CSCC3CC3)CC2)ccn1", "Mtb heat-shock": 2.823, "LdMetRS": 15.93}
{"structure": "CCC1CN(C(=O)c2cccc(OCc3cscn3)c2)CCO1", "stereo": "stereo not drawn", "Mtb heat-shock": 1.596, "LdMetRS": 20.2}
{"structure": "Cc1ccc(-c2cn[nH]c2C2CCCN(c3nccc(N)n3)C2)cc1", "stereo": "stereo not drawn", "Mtb heat-shock": 65.07, "LdMetRS": 15.93, "Mtb growth Cornell": 10.8}
{"structure": "CN1[C@H](Cn2cccn2)C[C@@H]2CN(Cc3cccs3)CC[C@@H]21", "LdMetRS": 1.104}
{"structure": "CN1CCCN(C(=O)NCc2cccnc2-n2cccn2)CC1", "Mtb heat-shock": -7.26, "LdMetRS": 18.21, "Mtb growth Cornell": -18.63}
{"structure": "COc1ccc(S(=O)(=O)NCc2cccnc2N(C)C)cc1F", "Mtb heat-shock": 10.28, "LdMetRS": 9.859, "Mtb growth Cornell": -0.107}
{"structure": "O=C(O)c1ccc(COc2cccc(Cl)c2)s1", "Mtb heat-shock": 8.277, "LdMetRS": 14.82}
{"structure": "O=c1c2cc3c(cc2nnn1Cc1cccc(F)c1)OCCO3", "Mtb heat-shock": -30.3, "LdMetRS": 13.31, "Mtb growth Cornell": -9.384}
{"structure": "Cc1ncsc1-c1ccn(CC(=O)Nc2cnn(C)n2)n1", "Mtb heat-shock": -5.593, "LdMetRS": 14.43, "Mtb growth Cornell": 25.33}
{"structure": "CCCn1ncc(C(=O)N2CCN(C(=O)c3ccc[nH]3)CC2)c1C", "Mtb heat-shock": -37.93, "LdMetRS": 7.534, "Mtb growth Cornell": 18.19}
{"structure": "COc1ccc(F)cc1S(=O)(=O)NCCn1cnc(C)cc1=O", "Mtb heat-shock": -0.9172, "LdMetRS": 19.24, "Mtb growth Cornell": -59.9}
{"structure": "Cc1onc(-c2ccncc2)c1C(=O)NC1CCCOC1", "stereo": "stereo not drawn", "Mtb heat-shock": -5.122, "LdMetRS": 13.95, "Mtb growth Cornell": 52.15}
{"structure": "Cc1cccnc1CNCC1(O)CCCN(CC2CCC2)C1=O", "stereo": "stereo not drawn", "Mtb heat-shock": -8.487, "LdMetRS": 13.35, "Mtb growth Cornell": 2.373}
{"structure": "NCc1cnn(-c2ccccc2C(=O)NCCc2ccccn2)c1", "Mtb heat-shock": 9.706, "LdMetRS": 14.89, "Mtb growth Cornell": -55.99}
{"structure": "COC(=O)CCCN(C)C(=O)c1cc(F)cc2[nH]cnc12", "Mtb heat-shock": -3.33, "LdMetRS": 8.075, "Mtb growth Cornell": -3.827}
{"structure": "CC(C)c1nc(CNc2nccc(CCC(F)(F)F)n2)cs1", "Mtb heat-shock": 13.05, "LdMetRS": 9.041}
{"structure": "CSC1=Nc2c(cnn2-c2cccc(Cl)c2)C2=NCCCN12", "Mtb heat-shock": 18.82, "LdMetRS": 13.71}
{"structure": "CCN(C)S(=O)(=O)N1CCCC(CO)(CC=C(C)C)C1", "stereo": "stereo not drawn", "Mtb heat-shock": -7.986, "LdMetRS": -7.519}
{"structure": "CN(C)C(=O)N1CCC2(CC1)CN(CC1CC1)CC21CCNC1=O", "stereo": "stereo not drawn", "LdMetRS": 6.111}
{"structure": "CCOc1ccc(NC(=O)c2cc(C)c(C)o2)cc1CO", "Mtb heat-shock": -4.867, "LdMetRS": 17.04, "Mtb growth Cornell": 22.28}
{"structure": "COCCn1cc(CC(=O)Nc2c(C)nn(C)c2C)c2ccccc21", "Mtb heat-shock": -6.159, "LdMetRS": 18.87, "Mtb growth Cornell": 1.631}
{"structure": "Cc1nn(C)cc1S(=O)(=O)N[C@@H]1CCC[C@@H](n2ccnc2)[C@@H]1O", "Mtb heat-shock": 1.894, "LdMetRS": 20.63, "Mtb growth Cornell": 15.53}
{"structure": "Cn1ccnc1CC1CCCN(C(=O)Cc2ccccc2)C1", "stereo": "stereo not drawn", "Mtb heat-shock": -11.06, "LdMetRS": 12.47}
{"structure": "CN(CC(=O)N1CCCCC1c1nc(C(C)(C)C)cs1)C1CC1", "stereo": "stereo not drawn", "Mtb heat-shock": 6.479, "LdMetRS": 12.57}
{"structure": "Cc1nc(CNC(=O)NCC(O)c2ccc(F)cc2)cs1", "stereo": "stereo not drawn", "Mtb heat-shock": -11.16, "LdMetRS": 23.46}
{"structure": "Cc1cccc(OCCC(=O)NCC(C)(C)C(N)=O)c1", "Mtb heat-shock": -6.346, "LdMetRS": 16.33}
{"structure": "CN(CC(F)(F)F)C(=O)CN1CCC(c2cc3ccccc3[nH]2)CC1", "Mtb heat-shock": -4.098, "LdMetRS": 12.63, "Mtb growth Cornell": 47.85}
{"structure": "Cc1ccc(N2C[C@@H]3CN(C(=O)c4ccccc4)CCO[C@@H]3C2)nn1", "LdMetRS": 3.623}
{"structure": "CC(O)c1cn(CC2CCN(C(=O)CN3CCCC3=O)CC2)nn1", "stereo": "stereo not drawn", "Mtb heat-shock": 3.377, "LdMetRS": 11.06, "Mtb growth Cornell": -19.8}

Data taken from ChEMBL document CHEMBL3988442, “University of Dundee, Small-Polar-MMV Screening Library” (2021).